{"source": "paper PMC12040169", "about": "(PLOS Biology, 2025)", "note": "Some of the results follow."}
{"test_system": "T1, CTL2-GFP (C. trachomatis L2/434/Bu, GFP-expressing)", "T1 construct": "L2/434/Bu, GFP-expressing", "set-up": "species or system HeLa; Intracellular C. trachomatis growth in HeLa cells, bulk GFP fluorescence relative to DMSO", "settings": "bulk GFP, single well; 28.5 h, 10 µM; inhibitor", "units": {"% of control remaining": "%"}}
{"smiles": "CC(=O)Nc1ccc(-c2cncc(N3CCN(C(=O)c4ccco4)CC3)n2)cc1", "note": "[CBK066065]", "% of control remaining": 122.653}
{"smiles": "Cc1noc(C)c1C(=O)N1CCC(c2nc(C)n3ccsc23)CC1", "note": "[CBK285239]", "% of control remaining": 146.85}
{"smiles": "O=C(NCc1ccc2c(c1)OCO2)[C@H]1CN2CCC1C[C@@H]2Cn1cc(-c2ccccn2)nn1", "note": "(stereo partly drawn) [CBK289082]", "% of control remaining": 114.207}
{"smiles": "O=C(O)c1ccc(-n2nnnc2Sc2nc([N+](=O)[O-])nn2Cc2ccccc2F)cc1", "note": "[CBK268498]", "% of control remaining": 158.174}
{"smiles": "COc1ccc(OC)c(NC(=O)CN2CCC(C(N)=O)(N3CCCCC3)CC2)c1", "note": "[CBK268462]", "% of control remaining": 123.334}
{"smiles": "C(=N\\c1ccc(Cc2ccc(/N=C/c3cccnc3)cc2)cc1)/c1cccnc1", "note": "[CBK260884]", "% of control remaining": 118.435}
{"smiles": "Cc1nc(C)c(C(=O)N2CC(C(=O)N3CCN(c4ccccc4)CC3)C2)s1", "note": "[CBK285666]", "% of control remaining": 110.823}
{"smiles": "CCOc1ccc(-c2ccnc(N3CCC(N(C)C)C3)n2)cc1C(=O)O", "note": "(stereo not drawn) [CBK307241]", "% of control remaining": 110.398}
{"smiles": "O=C1Cc2ccccc2C2(CCN(C(=O)c3cccc4cccc(C(=O)O)c34)CC2)N1", "note": "[CBK047313]", "% of control remaining": 96.1536}
{"smiles": "Cc1ccc(-n2c(SCC(=O)NC(C)Cc3ccccc3)nc3sc4c(c3c2=O)CC(C)(C)OC4)cc1", "note": "(stereo not drawn) [CBK267714]", "% of control remaining": 110.62}
{"smiles": "COCCCOc1cncc(N2CCCC2)n1", "note": "[CBK115759]", "% of control remaining": 128.021}
{"smiles": "O=C(Nc1ccc(Cl)cc1C(=O)NCCN1CCOCC1)c1ccc(Cl)cc1Cl", "note": "[CBK265749]", "% of control remaining": 197.978}
{"smiles": "O=C(CSc1nc2sc3c(c2c(=O)[nH]1)CCCC3)NCCN1CCOCC1", "note": "[CBK264064]", "% of control remaining": 105.489}
{"smiles": "OC(Cn1nnc2ccccc21)Cn1c(-c2ccccc2)c(-c2ccccc2)c2ccc3ccccc3c21", "note": "(stereo not drawn) [CBK264054G]", "% of control remaining": 59.1575}
{"smiles": "CC(=O)Nc1ccc(S(=O)(=O)NNC(=O)c2cccc(Cl)c2)cc1", "note": "[CBK261694]", "% of control remaining": 108.293}
{"smiles": "Cc1nnc(Sc2nc3ccccc3nc2NC(C)C)s1", "note": "[CBK093731]", "% of control remaining": 112.698}
{"smiles": "Cc1cc(O)nc2sc(C(=O)c3ccccc3)c(N)c12", "note": "[CBK115334]", "% of control remaining": 114.312}
{"smiles": "COCCNC(=O)c1nnn(-c2ccc(Br)cc2)c1C", "note": "[CBK300524]", "% of control remaining": 177.851}
{"smiles": "CC(C)(C)C(=O)NC(=S)Nc1ccc(Cc2ccncc2)cc1", "note": "[CBK269717]", "% of control remaining": 122.538}
{"smiles": "COCC(=O)N1CCc2sccc2C1c1ccc(NC(=O)c2ccc(F)cc2)cc1", "note": "(stereo not drawn) [CBK286435]", "% of control remaining": 90.3608}
{"smiles": "N#CCCCN1CCCC2(C1)NCCc1c2[nH]c2cc(F)ccc12", "note": "(stereo not drawn) [CBK039826]", "% of control remaining": 86.8064}
{"smiles": "CN(C)CCCC(=O)N1CCN(C(=O)c2ccco2)CC1", "note": "[CBK144445]", "% of control remaining": 164.32}
{"smiles": "C[C@H](Nc1nc(-c2ccoc2)cnc1N)c1ccccc1", "note": "[CBK063707]", "% of control remaining": 177.46}
{"smiles": "CCOC(=O)C(NC(=O)c1cn[nH]c1)c1cccc(C)c1C", "note": "(stereo not drawn) [CBK304175]", "% of control remaining": 133.414}
{"smiles": "CC1(C)C[C@H](NC(=O)c2ccccc2)[C@@]2(CCC(=O)NC3CC3)CC[C@](C)(O)C[C@@H]12", "note": "[CBK289045]", "% of control remaining": 139.773}
{"smiles": "CS(=O)(=O)c1ccc(CN2CCOC[C@H]2c2nc(-c3ccc(F)cc3)c[nH]2)cc1", "note": "[CBK289295]", "% of control remaining": 129.183}
{"smiles": "Cc1ccc(Cc2cnc(NC(=O)NC3CCOCC3)s2)cc1Cl", "note": "[CBK304440]", "% of control remaining": 117.419}
{"smiles": "CC(=O)Nc1ccc2nc(NC(=O)c3ccc(C#N)cc3)sc2c1", "note": "[CBK287309]", "% of control remaining": 155.894}
{"smiles": "COc1ccc(-c2nn(-c3ccccc3)cc2C(=O)Nc2ccc(C(=O)O)cc2)cc1", "note": "[CBK296121]", "% of control remaining": 116.146}
{"smiles": "O=C(CCn1c(C(F)(F)F)cc2cccnc21)NC1CCCC1", "note": "[CBK284864]", "% of control remaining": 123.105}
{"smiles": "CC1(C)CC(=O)c2sc(NC(=O)C3COc4ccccc4O3)nc2C1", "note": "(stereo not drawn) [CBK144104]", "% of control remaining": 109.202}
{"smiles": "COc1ccc(C(=O)N[C@H]2C[C@H]3C(=O)Nc4ccc(-c5ccsc5)cc4C(=O)N3C2)cc1", "note": "[CBK289362]", "% of control remaining": 95.5104}
{"smiles": "CCN(Cc1ccccc1)C1CCN(Cc2cccc(OC)c2)CC1", "note": "[CBK264654G]", "% of control remaining": 108.851}
{"smiles": "Cc1cc(N2CCC(O)CC2)nc(N)n1", "note": "[CBK167265]", "% of control remaining": 128.997}
{"smiles": "COc1ccc(/C=C/C(=O)NCc2ccc(S(N)(=O)=O)cc2)cc1OC", "note": "[CBK265483]", "% of control remaining": 133.662}
{"smiles": "CCCc1n[nH]c(-c2cc(C(F)(F)F)ccc2F)c1C(=O)OCC", "note": "[CBK107231]", "% of control remaining": 101.606}
{"smiles": "CS(=O)(=O)CCC(C(=O)O)N1C(=O)c2ccc(Oc3ccc(Cl)cc3)cc2C1=O", "note": "(stereo not drawn) [CBK266377]", "% of control remaining": 186.237}
{"smiles": "COc1ccc(-n2cc(-c3ccccn3)nn2)cc1OC", "note": "[CBK113133]", "% of control remaining": 114.559}
{"smiles": "Cc1ccccc1NC(=O)/C(=C\\c1cccnc1)NC(=O)c1ccccc1", "note": "[CBK261632]", "% of control remaining": 125.351}
{"smiles": "CCn1c(SCC(=O)Nc2ccc([N+](=O)[O-])cc2O)nnc1-c1ccccc1", "note": "[CBK268730]", "% of control remaining": 108.658}
{"smiles": "COc1ccc(CC(=O)Nc2cccc(-c3cn4ccc(C)cc4n3)c2)cc1OC", "note": "[CBK269148]", "% of control remaining": 163.002}
{"smiles": "Cc1cc(S(=O)(=O)N(C)CCC#N)c(C)cc1Cl", "note": "[CBK043787]", "% of control remaining": 103.819}
{"smiles": "Cc1n[nH]c(C)c1C12CC3CC(CC(CC(=O)O)(C3)C1)C2", "note": "[CBK288241]", "% of control remaining": 132.682}
{"smiles": "CSC(C)C(=O)N(C)C1CCN(c2ncnc3ccccc23)CC1", "note": "(stereo not drawn) [CBK305300]", "% of control remaining": 107.284}
{"smiles": "O=C(c1cscn1)N1CCN(CCc2ccccc2)CC1", "note": "[CBK200230]", "% of control remaining": 127.365}
{"smiles": "CC(=O)c1ccc(-c2cn3ccnc3c(N3CCN(C)CC3)n2)s1", "note": "[CBK037957]", "% of control remaining": 183.974}
{"smiles": "Cc1ccc(Nc2nc(Cn3nc(C(=O)O)c4ccccc4c3=O)cs2)cc1", "note": "[CBK296989]", "% of control remaining": 158.015}
{"smiles": "Cc1ccnn1CCC(=O)NC1(c2ccc(F)cc2)CCCC1", "note": "[CBK283600]", "% of control remaining": 85.702}
{"smiles": "COc1ccccc1NC(=O)C1CCN(C(=O)OC(C)(C)C)CC1", "note": "[CBK296746]", "% of control remaining": 144.235}
{"smiles": "Cc1ccn2c(CN3CCCC(Cn4ccnc4C)C3)c(C)nc2c1", "note": "(stereo not drawn) [CBK281964]", "% of control remaining": 110.571}
{"smiles": "CC(C)(C)c1ccc(C(=O)N2CCC(C(=O)O)CC2)cc1", "note": "[CBK286949]", "% of control remaining": 137.611}
{"smiles": "Cc1cc(C)c(NC(=O)N(CCCO)Cc2ccncc2)c(Cl)c1", "note": "[CBK304406]", "% of control remaining": 110.416}
{"smiles": "CN(C)CC(=O)N1CCN(c2ccc(C(=O)c3ccccc3)cc2[N+](=O)[O-])CC1", "note": "[CBK296699]", "% of control remaining": 142.593}
{"smiles": "Cc1nn(-c2ccc3nnc(C)n3n2)c2c1C(c1ccccc1F)CC(=O)N2", "note": "(stereo not drawn) [CBK287898]", "% of control remaining": 106.448}
{"smiles": "Cc1ccc(C(=O)CN2CCCC3(C2)NCCc2c3[nH]c3c(C)cccc23)cc1", "note": "(stereo not drawn) [CBK039546]", "% of control remaining": 105.19}
{"smiles": "COc1ccccc1CN(Cc1cccnc1)C(=O)CCn1cnnn1", "note": "[CBK307106]", "% of control remaining": 116.176}
{"smiles": "O=C(CN1CCCCCC1)N/N=C/c1ccccc1Cl", "note": "[CBK261589]", "% of control remaining": 120.622}
{"smiles": "CCN1CCC2(C/C=C/CCOc3ccccc3C(=O)NCCCNC2=O)CC1", "note": "[CBK292060]", "% of control remaining": 118.879}
{"smiles": "C[C@@H](c1ccccc1)n1c(=O)[nH]c2ncc(-c3ccc(N(C)C)cc3)nc21", "note": "[CBK064352]", "% of control remaining": 127.674}
{"smiles": "CCOC(=O)c1nc(C2CCN(c3cccc(F)c3C#N)CC2)n[nH]1", "note": "[CBK304711]", "% of control remaining": 106.566}
{"smiles": "O=C(Nc1cc(Cl)nc(Cl)c1)N(Cc1ccc2ccccc2c1)CC1CCNCC1", "note": "[CBK049773]", "% of control remaining": 38.5502}
{"smiles": "N=C(N)NCC(=O)N(CCCc1cc(C(F)(F)F)cc(C(F)(F)F)c1)c1ccc2c(c1)OCO2", "note": "[CBK000702T]", "% of control remaining": 111.059}
{"smiles": "CCN(CC)C(=O)NC(C)c1cccc(S(=O)(=O)NC)c1", "note": "(stereo not drawn) [CBK305134]", "% of control remaining": 132.575}
{"smiles": "O=C(CC(CN1CCCCC1)C(=O)O)Nc1cccc(O)c1", "note": "(stereo not drawn) [CBK286788]", "% of control remaining": 106.972}
{"smiles": "CC(=O)c1c(C)oc(C)c1C(C)=O", "note": "[CBK012535]", "% of control remaining": 102.832}
{"smiles": "FC(F)(F)c1ccc(N2CCNCC2)nc1SCc1ccccc1Cl", "note": "[CBK003964A]", "% of control remaining": 79.0323}
{"smiles": "CCOc1ccc(-c2noc(CCC(=O)NC)n2)cc1OC", "note": "[CBK269226]", "% of control remaining": 104.558}
{"smiles": "COc1ncc(-c2cnc(N)c(-c3ccc(C=O)cc3)n2)c(OC)n1", "note": "[CBK064110]", "% of control remaining": 197.976}
{"smiles": "O=C(O)/C=C/C(=O)NNC(=O)c1ccccc1Br", "note": "[CBK261786]", "% of control remaining": 113.098}
{"smiles": "COC(=O)CNC(=O)c1ccncc1Br", "note": "[CBK057760]", "% of control remaining": 121.914}
{"smiles": "Cc1cc(O)n2nc(C)c(-c3ccc(F)cc3)c2n1", "note": "[CBK283642]", "% of control remaining": 103.319}
{"smiles": "COc1ccc2[nH]cc(CC3CCNCC3)c2c1", "note": "[CBK012779]", "% of control remaining": 94.7835}
{"smiles": "COc1ccc(CNC(=O)c2ccccc2NS(=O)(=O)c2cc(Cl)ccc2Cl)cc1", "note": "[CBK113964]", "% of control remaining": 108.269}
{"smiles": "Cc1nc(C)c(CCC(=O)Nc2ccc(N3CCOCC3)cc2)c(=O)[nH]1", "note": "[CBK306059]", "% of control remaining": 110.575}
{"smiles": "Cc1cnn(C2CN(CC(=O)N3CCc4sccc4C3)C2)c1", "note": "[CBK305097]", "% of control remaining": 126.394}
{"smiles": "C=CCNC(=O)N1CC[C@H]2CC(=O)N(Cc3ccc(OC)cc3)CC[C@H]2C1", "note": "[CBK288790]", "% of control remaining": 133.697}
{"smiles": "CC1CCN(C(=S)NC2CC3CCC2C3)CC1", "note": "(stereo not drawn) [CBK085998]", "% of control remaining": 127.727}
{"smiles": "CCn1c2c(c3cc(S(=O)(=O)c4ccc(C(F)(F)F)cc4)ccc31)CCNCC2", "note": "[CBK018453C]", "% of control remaining": 11.5532}
